Measured values as given in patent US20220235109A1.
These are yes or no findings as the source states them, for the method shown. Some binding calls cover weakened binding; strength is not graded here.

Protein sequences, listed by entry. Tags and fused reporters are not part of them. Residues count along the entry.
UniProt Q15116, residues 25-288: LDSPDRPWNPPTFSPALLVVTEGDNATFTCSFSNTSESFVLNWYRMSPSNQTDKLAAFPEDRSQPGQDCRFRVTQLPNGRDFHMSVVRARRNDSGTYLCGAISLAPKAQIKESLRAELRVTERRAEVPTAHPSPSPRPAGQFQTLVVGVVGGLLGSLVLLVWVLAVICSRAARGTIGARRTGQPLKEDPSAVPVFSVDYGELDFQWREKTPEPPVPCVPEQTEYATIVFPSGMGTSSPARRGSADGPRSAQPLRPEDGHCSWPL

Molecular target: PD1 expressed on cell surface (UniProt Q15116)
Assay: FACS on PD-1-expressing cells

binding: binds
B1: P-0795 (antibody, human IgG1, kappa, V domains shown)
VH: EVQLVESGGGLVKPGGSLRLSCAASGFTFSSYDMSWVRQAPGKGLEWVATISGGGSYTYYPDSVKGRFTISRDNAKNSLYLQMNSLRAEDTAVYYCASPDSSGVAYWGQGTLVTVSS
VL: DIVMTQSPLSLPVTPGEPASITCKASQDVETVVAWYLQKPGQSPRLLIYWASTRHTGVPDRFSGSGSGTDFTLKISRVEAEDVGVYYCQQYSRYPWTFGQGTKLEIKR
